The results in this text go back to article doi:10.1101/611533.

These are yes or no findings as the source states them, for the method shown. In cells and extracts the contact can be indirect. Some results given as binding are weak or reduced against the parent protein; the word gives no strength. Sequences can lack the tags named with a protein.

Assay [1] addresses T1, FLAG-UBP12 (Arabidopsis thaliana) (UniProt Q9FPT1).
T1 sequence: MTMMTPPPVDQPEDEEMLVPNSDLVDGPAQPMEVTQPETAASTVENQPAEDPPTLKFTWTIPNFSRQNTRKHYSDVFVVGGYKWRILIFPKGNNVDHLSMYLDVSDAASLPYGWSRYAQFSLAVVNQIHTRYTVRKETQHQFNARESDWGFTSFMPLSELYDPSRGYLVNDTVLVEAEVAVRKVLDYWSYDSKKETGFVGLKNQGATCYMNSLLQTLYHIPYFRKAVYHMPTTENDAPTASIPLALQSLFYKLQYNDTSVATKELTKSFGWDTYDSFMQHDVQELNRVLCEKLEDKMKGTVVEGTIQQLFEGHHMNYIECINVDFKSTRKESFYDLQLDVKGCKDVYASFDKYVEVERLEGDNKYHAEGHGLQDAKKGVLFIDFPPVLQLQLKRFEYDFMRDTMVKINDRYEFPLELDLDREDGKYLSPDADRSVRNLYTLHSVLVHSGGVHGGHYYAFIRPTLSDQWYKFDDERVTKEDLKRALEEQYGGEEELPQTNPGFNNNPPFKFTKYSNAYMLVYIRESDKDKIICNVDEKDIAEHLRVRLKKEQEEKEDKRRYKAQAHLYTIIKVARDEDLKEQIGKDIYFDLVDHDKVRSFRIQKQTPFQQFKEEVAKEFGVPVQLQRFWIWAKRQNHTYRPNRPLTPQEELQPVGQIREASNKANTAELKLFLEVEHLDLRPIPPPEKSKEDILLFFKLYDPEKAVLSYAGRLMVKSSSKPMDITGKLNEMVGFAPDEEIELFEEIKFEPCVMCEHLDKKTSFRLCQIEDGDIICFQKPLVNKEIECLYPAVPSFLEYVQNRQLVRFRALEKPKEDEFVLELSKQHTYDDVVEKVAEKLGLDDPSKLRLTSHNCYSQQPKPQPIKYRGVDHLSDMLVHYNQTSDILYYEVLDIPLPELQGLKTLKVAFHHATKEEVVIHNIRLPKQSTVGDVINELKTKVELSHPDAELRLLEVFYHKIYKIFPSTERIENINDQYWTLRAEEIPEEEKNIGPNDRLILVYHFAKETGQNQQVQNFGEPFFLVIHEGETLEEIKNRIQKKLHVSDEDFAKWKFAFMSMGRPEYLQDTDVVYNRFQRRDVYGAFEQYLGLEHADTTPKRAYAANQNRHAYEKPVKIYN
Kind of assay: co-IP.

Assay [2] has as its target T2, FLAG-UBP13 (Arabidopsis thaliana) (UniProt Q84WU2).
T2 sequence: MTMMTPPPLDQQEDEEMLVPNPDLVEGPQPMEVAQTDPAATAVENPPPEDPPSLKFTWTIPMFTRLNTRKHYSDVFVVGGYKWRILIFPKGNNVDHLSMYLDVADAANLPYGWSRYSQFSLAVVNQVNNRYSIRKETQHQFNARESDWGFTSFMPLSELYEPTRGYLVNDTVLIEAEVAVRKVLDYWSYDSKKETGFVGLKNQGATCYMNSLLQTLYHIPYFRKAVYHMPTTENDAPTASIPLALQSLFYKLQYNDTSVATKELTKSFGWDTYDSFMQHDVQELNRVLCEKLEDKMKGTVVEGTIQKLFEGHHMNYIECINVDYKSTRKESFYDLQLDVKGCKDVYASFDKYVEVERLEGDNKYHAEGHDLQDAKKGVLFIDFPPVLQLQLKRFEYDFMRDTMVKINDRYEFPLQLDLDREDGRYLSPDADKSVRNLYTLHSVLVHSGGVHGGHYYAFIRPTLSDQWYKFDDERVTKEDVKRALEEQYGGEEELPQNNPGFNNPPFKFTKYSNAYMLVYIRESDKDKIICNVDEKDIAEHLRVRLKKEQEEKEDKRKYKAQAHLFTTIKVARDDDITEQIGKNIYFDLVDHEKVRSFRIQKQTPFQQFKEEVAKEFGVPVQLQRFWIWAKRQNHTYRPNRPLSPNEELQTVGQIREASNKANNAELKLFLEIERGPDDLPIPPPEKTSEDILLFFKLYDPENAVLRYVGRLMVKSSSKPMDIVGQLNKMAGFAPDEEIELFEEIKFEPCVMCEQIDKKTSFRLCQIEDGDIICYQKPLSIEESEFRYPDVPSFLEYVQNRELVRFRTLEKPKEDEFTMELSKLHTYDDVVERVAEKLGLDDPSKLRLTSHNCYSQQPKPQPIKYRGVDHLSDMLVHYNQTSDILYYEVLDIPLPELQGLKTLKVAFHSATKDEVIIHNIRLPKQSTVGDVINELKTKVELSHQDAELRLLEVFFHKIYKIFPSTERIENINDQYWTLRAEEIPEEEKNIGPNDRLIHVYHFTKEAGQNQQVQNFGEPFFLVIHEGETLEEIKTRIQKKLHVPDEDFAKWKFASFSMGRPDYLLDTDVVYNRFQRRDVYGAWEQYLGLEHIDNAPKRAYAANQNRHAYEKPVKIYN
Kind of assay: co-IP.

B1: HA-GI (protein, UniProt Q9SQI2 1-1173)
chain: MASSSSSERWIDGLQFSSLLWPPPRDPQQHKDQVVAYVEYFGQFTSEQFPDDIAELVRHQYPSTEKRLLDDVLAMFVLHHPEHGHAVILPIISCLIDGSLVYSKEAHPFASFISLVCPSSENDYSEQWALACGEILRILTHYNRPIYKTEQQNGDTERNCLSKATTSGSPTSEPKAGSPTQHERKPLRPLSPWISDILLAAPLGIRSDYFRWCSGVMGKYAAGELKPPTIASRGSGKHPQLMPSTPRWAVANGAGVILSVCDDEVARYETATLTAVAVPALLLPPPTTSLDEHLVAGLPALEPYARLFHRYYAIATPSATQRLLLGLLEAPPSWAPDALDAAVQLVELLRAAEDYASGVRLPRNWMHLHFLRAIGIAMSMRAGVAADAAAALLFRILSQPALLFPPLSQVEGVEIQHAPIGGYSSNYRKQIEVPAAEATIEATAQGIASMLCAHGPEVEWRICTIWEAAYGLIPLNSSAVDLPEIIVATPLQPPILSWNLYIPLLKVLEYLPRGSPSEACLMKIFVATVETILSRTFPPESSRELTRKARSSFTTRSATKNLAMSELRAMVHALFLESCAGVELASRLLFVVLTVCVSHEAQSSGSKRPRSEYASTTENIEANQPVSNNQTANRKSRNVKGQGPVAAFDSYVLAAVCALACEVQLYPMISGGGNFSNSAVAGTITKPVKINGSSKEYGAGIDSAISHTRRILAILEALFSLKPSSVGTPWSYSSSEIVAAAMVAAHISELFRRSKALTHALSGLMRCKWDKEIHKRASSLYNLIDVHSKVVASIVDKAEPLEAYLKNTPVQKDSVTCLNWKQENTCASTTCFDTAVTSASRTEMNPRGNHKYARHSDEGSGRPSEKGIKDFLLDASDLANFLTADRLAGFYCGTQKLLRSVLAEKPELSFSVVSLLWHKLIAAPEIQPTAESTSAQQGWRQVVDALCNVVSATPAKAAAAVVLQAERELQPWIAKDDEEGQKMWKINQRIVKVLVELMRNHDRPESLVILASASDLLLRATDGMLVDGEACTLPQLELLEATARAIQPVLAWGPSGLAVVDGLSNLLKCRLPATIRCLSHPSAHVRALSTSVLRDIMNQSSIPIKVTPKLPTTEKNGMNSPSYRFFNAASIDWKADIQNCLNWEAHSLLSTTMPTQFLDTAARELGCTISLSQ
Turning to B1, the binding result in assay [1] and in assay [2] was “binds” in each case.
